Patent publication US9925192B2, “Method for treating cancer” (Merck Sharp & Dohme Corp., priority 2014, dated 2018)
At least one compound was matched to its structure with a doubt left.

Legend:
[1] = system: TOLEDO human Diffuse Large B-Cell Lymphoma (DLBCL) xenograft; test: Toledo human DLBCL xenograft model; details: dinaciclib 40 mg/kg ip q4d, ABT-199 100 mg/kg po qd, alone or combined
[2] = system: NCI-H82 human Small Cell Lung Cancer (SCLC) xenograft; test: NCI-H82 human Small Cell Lung Cancer xenograft model; assay type: in vivo, mouse; details: dinaciclib 40 mg/kg ip q4d, ABT-199 100 mg/kg po qd
Procedure: (§1) The cells were cultured in tissue culture flasks in a humidified incubator at 37° C., in an atmosphere of 5% CO2 and 95% air.
(§2) Body weight was measured at least twice weekly.

[3] = system: SUDHL4 human Diffuse Large B-Cell Lymphoma (DLBCL) xenograft; assay type: in vivo; details: dinaciclib 40 mg/kg ip q4d, ABT-199 100 mg/kg po qd, dosing for eleven days, combination measured on day 18
Procedure: as §1, §2

Question: Which “Anti-tumor effect (tumor volume)” value [1] does the source give for `CCc1cnn2c(NCc3ccc[n+]([O-])c3)cc(N3CCCC[C@H]3CCO)nc12` [dinaciclib, (S)-(−)-2-(1-{3-ethyl-7-[(1-oxy-pyridin-3-ylmethyl)amino]pyrazolo[1,5-a]pyrimidin-5-yl}piperidin-2-yl)ethanol] here?
Answer: provided anti-tumor effects

Question: And the “Effect on tumor growth (single agents)” value [2]?
Answer: no effect on tumor growth

Question: What about the “Anti-tumor effect (tumor volume)” value [3] of the same compound?
Answer: single agent activity
